Measured values as given in US9428732B2, “Compositions and methods for differentiating pluripotent stem cells into primitive blood cells and uses thereof” (Primorigen Biosciences, Inc., priority 2011, dated 2016).
At least one compound was matched to its structure with a doubt left.

What was measured:
[1] = tested on: pluripotent lines (ES, iPS); test: Additional molecules added to Differentiation Medium 1, FACS and flow cytometry; format: cell-based, human; settings: butein 10 uM
Method: Cells from the differentiation cultures were collected at time points indicated and washed in phosphate-buffered saline (PBS) supplemented with 2% FBS. Adherent cells were individualized using TrypLE (Life Technologies, Carlsbad Calif.), passed through a 27.5-gauge needle and filtered through a 40-70 μm cell strainer (BD Falcon, San Diego, Calif., www.bdbiosciences.com). Cells were treated with 7-aminoactinomycin D (7AAD) before analysis, and positive cells were gated out of results. Cells were stained with fluorescence-conjugated antibodies for the hematopoietic stem and progenitor cell markers CD45, CD43, CD34, CD38, CD90; CD45RA. Cells were analyzed on a FACS Canto (BD, Franklin Lakes, N.J., www.bd.com).
We have completed a number of studies to establish other molecules that may further improve the yields and phenotypes of hematopoietic cells derived using Differentiation Medium 1. Tested compounds were Cripto, LY2228820, valproic acid (VPA), sodium selenite, and butein. In all instances, each molecule below was supplemented into Differentiation Medium 1 to study their effect in concert with DEAB. […] The data we report below for these molecules illustrates how they may improve the yield of hematopoietic progenitors and phenotypic stem cells measured by FACS, flow cytometry, and CFU assays. […]

[2] = tested on: NOD.Cg-Prkdc^scidI12rg^tm1Wjl/SzJ mice; test: Pluripotent stem cell derived hematopoietic cell transplantation, engraftment; format: in vivo; settings: Differentiation Medium 1 (containing DEAB) supplemented with the molecule; studies underway, predicted
Method: Single-cell suspensions of the pluripotent stem cell differentiation cultures described herein were injected into sublethally irradiated (325 rad) NOD.Cg-Prkdc^scidI12rg^tm1Wjl/SzJ mice (JAX, Bar Harbor, Me., www.jax.org) via tail vein injections, intrafemoral injection, or cardiac injection. Peripheral blood was harvested at times indicated via tail vein or retro-orbital eye bleed or cardiac puncture on anesthetized mice. Bone marrow and spleen cells were harvested at the terminal stage of the transplant experiment. Bone marrow cells were isolated via pestle mortar crushing of bone followed by rinsing and 70 micron filtering. Cells were analyzed by FACS, CFU assay, or transplanted serially into secondary and tertiary mice. FACS analysis for the human pan hematopoietic marker CD45, progenitor marker CD34, myeloid markers CD11b, CD15, CD33 and lymphoid markers CD19, CD56 and CD132, and erythroid markers CD235. When erythrocytes were not being analyzed, the red cells were lysed using ammonium chloride solution (0.8% NH4Cl with 0.1 mM EDTA) (STEMCELL Technologies, Vancouver, BC), spun, and stained with antibodies against the above-mentioned markers. All animal experiments were conducted in accordance with Institutional Animal ethical use protocols. […]

[3] = tested on: pluripotent stem cell differentiation cultures; test: Enzyme activity for protection against reactive oxygen species; format: cell-based, human; settings: added independently to Differentiation Medium 1: sodium selenite 100 nM, butein 10 uM
Description: It has been shown that DS DNA breaks reduce transplant efficiency of repopulating HSCs. In vitro derived blood from pluripotent stem cell has high levels of DNA damage. Inhibition of DNA damage and the DNA damage response, from reactive oxygen species (ROS) or other sources of damage (radiation, chemical etc) in pluripotent stem cell differentiation systems will decrease DNA damage and increase hematopoietic cell number, repopulating ability and increase the differentiation potential of the cells (i.e. expansion of downstream lineages). See Yahata et al. Blood, 2011, 118(11):2941-50). […] Adding sodium selenite (100 nM) and butein (10 uM) independently to Differentiation Medium 1 increased enzyme activity for protection against reactive oxygen species (ROS). […] See FIGS. 11A and 11B for sodium selenite and FIGS. 12A and 12B for butein. These studies are being expanded into dose response experiments from which we expect to identify optimal concentrations.

O=[Se](O)O [sodium selenite]
CD34+, CD38− cells ([1]; added independently to Differentiation Medium 1: sodium selenite 100 nM): increased | total number of cells ([1]; added to Differentiation Medium 1 (contains DEAB): LG101506 1 uM, sodium selenite 100 nM, valproic acid 1 mM): increased | suitability of generated phenotypic HSC cells for in vivo engraftment [2]: suitable for successful in vivo engraftment | enzyme activity for protection against reactive oxygen species (ROS) [3]: increased
